Here are results for one molecule from paper PMC10258020.

For this experiment, the target named is Ras-GTPase-activating protein SH3-domain-binding protein 1 (G3BP1) (human (endogenous in SH-SY5Y)) (UniProt Q13283). As to the kind of experiment: co-IP; stress granule cores from SH-SY5Y cells treated with 500 uM sodium arsenite for 1 h, immunoprecipitated with anti-G3BP1 antibody (BD Biosciences, 611126) and Dynabeads Protein G at 4°C in SG lysis buffer (50 mM Tris-HCl pH 7.4, 100 mM KOAc, 2 mM MgOAc, 0.5 mM DTT, 50 ug/mL heparin, 0.5% NP-40); proteins detected in the purified cores.

No constants are given. Whether binding was seen depends on the method and setting. In cells and extracts the contact can be indirect. Some binding calls cover weakened binding; strength is not graded here.

B1: Ras-GTPase-activating protein SH3-domain-binding protein 2 (G3BP2) (protein, UniProt Q9UN86 1-482)
chain: MVMEKPSPLLVGREFVRQYYTLLNKAPEYLHRFYGRNSSYVHGGVDASGKPQEAVYGQNDIHHKVLSLNFSECHTKIRHVDAHATLSDGVVVQVMGLLSNSGQPERKFMQTFVLAPEGSVPNKFYVHNDMFRYEDEVFGDSEPELDEESEDEVEEEQEERQPSPEPVQENANSGYYEAHPVTNGIEEPLEESSHEPEPEPESETKTEELKPQVEEKNLEELEEKSTTPPPAEPVSLPQEPPKAFSWASVTSKNLPPSGTVSSSGIPPHVKAPVSQPRVEAKPEVQSQPPRVREQRPRERPGFPPRGPRPGRGDMEQNDSDNRRIIRYPDSHQLFVGNLPHDIDENELKEFFMSFGNVVELRINTKGVGGKLPNFGFVVFDDSEPVQRILIAKPIMFRGEVRLNVEEKKTRAARERETRGGGDDRRDIRRNDRGPGGPRGIVGGGMMRDRDGRGPPPRGGMAQKLGSGRGTGQMEGRFTGQRR
For B1, the binding entry is “binds”.
